Test results published in the M2OR odorant receptor database.
Changes are numbered by the printed parent chain. The list shows a part of the results, in another mix than the full data. Calls are pooled over several reports, among them a noisy single-well screen. The list shows a part of the results. The list shows a part of the results.

Chains of the proteins cited; added tags and fusions are not shown. A line that says so, or that is headed by a name, gives the form on record, which may keep a tag or linker.
OR2W1, as listed by the source: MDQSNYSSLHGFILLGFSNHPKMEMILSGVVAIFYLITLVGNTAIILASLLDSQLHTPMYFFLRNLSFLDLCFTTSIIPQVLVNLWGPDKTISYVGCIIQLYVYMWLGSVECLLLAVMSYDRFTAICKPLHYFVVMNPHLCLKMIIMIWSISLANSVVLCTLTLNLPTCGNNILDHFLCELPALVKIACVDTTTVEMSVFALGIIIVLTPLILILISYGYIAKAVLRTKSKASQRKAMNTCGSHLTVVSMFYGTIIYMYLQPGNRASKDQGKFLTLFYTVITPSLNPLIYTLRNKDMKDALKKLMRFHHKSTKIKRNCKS

Tests used:
Conditions in all cases: stereoisomer not certain
OR2W1 [1] = system: T1, OR2W1
T1 sequence (whole entry): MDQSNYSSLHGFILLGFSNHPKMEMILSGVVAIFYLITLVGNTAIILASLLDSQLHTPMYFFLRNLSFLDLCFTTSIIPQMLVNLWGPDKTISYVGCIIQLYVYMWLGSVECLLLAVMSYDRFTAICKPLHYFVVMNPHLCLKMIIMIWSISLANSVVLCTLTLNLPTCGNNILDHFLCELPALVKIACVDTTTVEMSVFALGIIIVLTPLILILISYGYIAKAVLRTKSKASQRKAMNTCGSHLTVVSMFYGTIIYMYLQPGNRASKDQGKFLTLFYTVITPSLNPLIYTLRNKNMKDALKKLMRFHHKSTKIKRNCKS
Outline: (§1)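 Each receptor–molecule pair is labelled responsive or non-responsive (inactive) according to whether the original authors judged the measured signal statistically different from baseline. The data were taken from the main text and supplementary material of published papers and checked for typos and inconsistencies. Assay methods differed by source, with transient luciferase assays in mammalian cell lines being common.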

OR2W1 [2] = system: T2, OR2W1; remark: listed apart in the source
T2 sequence (whole entry): T1 sequence (whole entry) with M81V, N296D
Outline: as §1

OR2W3 (Homo sapiens) = molecular target: T3, OR2W3 (Homo sapiens) (UniProt Q7Z3T1)
T3 sequence (whole entry): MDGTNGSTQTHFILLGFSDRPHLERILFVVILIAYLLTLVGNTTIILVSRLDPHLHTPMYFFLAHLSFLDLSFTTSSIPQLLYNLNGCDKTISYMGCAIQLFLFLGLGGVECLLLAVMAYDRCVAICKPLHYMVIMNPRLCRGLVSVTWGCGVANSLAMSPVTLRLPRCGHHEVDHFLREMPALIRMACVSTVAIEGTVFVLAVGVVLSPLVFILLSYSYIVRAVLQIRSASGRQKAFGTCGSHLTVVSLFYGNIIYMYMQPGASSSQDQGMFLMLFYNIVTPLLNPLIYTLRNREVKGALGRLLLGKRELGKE
Outline: as §1

OR2W3 = system: T4, OR2W3
T4 sequence (whole entry): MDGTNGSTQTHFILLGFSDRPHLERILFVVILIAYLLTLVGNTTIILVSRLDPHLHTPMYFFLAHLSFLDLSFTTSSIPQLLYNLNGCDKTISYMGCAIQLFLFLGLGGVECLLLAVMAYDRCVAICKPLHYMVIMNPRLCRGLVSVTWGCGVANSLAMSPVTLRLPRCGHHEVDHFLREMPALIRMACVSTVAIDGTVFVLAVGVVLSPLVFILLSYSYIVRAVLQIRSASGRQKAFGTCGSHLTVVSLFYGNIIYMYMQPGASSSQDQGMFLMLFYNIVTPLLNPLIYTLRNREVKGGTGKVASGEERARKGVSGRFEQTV
Outline: as §1

OR2W5P (Homo sapiens) = molecular target: T5, OR2W5P (Homo sapiens) (UniProt A6NFC9)
T5 sequence (whole entry): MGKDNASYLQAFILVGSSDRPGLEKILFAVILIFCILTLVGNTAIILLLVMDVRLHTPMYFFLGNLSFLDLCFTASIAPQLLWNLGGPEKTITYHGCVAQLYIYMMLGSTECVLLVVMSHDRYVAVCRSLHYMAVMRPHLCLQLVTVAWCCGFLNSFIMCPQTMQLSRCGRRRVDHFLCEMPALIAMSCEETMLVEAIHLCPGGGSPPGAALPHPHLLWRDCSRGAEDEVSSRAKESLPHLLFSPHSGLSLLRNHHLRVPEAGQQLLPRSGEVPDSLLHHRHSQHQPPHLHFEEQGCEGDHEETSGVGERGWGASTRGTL
Outline: as §1

OR2Y1 = system: T6, OR2Y1
T6 sequence (whole entry): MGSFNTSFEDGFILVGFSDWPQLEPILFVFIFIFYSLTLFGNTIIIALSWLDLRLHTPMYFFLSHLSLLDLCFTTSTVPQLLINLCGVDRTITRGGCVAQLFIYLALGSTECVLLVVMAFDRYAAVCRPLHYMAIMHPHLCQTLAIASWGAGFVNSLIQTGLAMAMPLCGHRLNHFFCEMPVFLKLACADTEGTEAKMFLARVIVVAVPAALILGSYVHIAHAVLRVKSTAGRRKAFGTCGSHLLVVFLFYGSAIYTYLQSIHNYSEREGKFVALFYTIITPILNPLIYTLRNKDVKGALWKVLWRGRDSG
Outline: as §1

OR2Z1 (Homo sapiens) = molecular target: T7, OR2Z1 (Homo sapiens) (UniProt Q8NG97)
T7 sequence (whole entry): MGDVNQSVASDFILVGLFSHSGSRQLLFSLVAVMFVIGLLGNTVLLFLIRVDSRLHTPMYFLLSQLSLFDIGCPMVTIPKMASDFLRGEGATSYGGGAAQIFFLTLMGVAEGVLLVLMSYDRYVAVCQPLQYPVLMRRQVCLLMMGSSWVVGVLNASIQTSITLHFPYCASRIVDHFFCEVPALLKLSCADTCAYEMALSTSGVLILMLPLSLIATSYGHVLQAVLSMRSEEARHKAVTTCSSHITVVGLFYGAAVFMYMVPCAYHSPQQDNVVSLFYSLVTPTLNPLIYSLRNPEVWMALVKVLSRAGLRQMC
Outline: as §1

OR3A1 (Homo sapiens) = molecular target: T8, OR3A1 (Homo sapiens) (UniProt P47881)
T8 sequence (whole entry): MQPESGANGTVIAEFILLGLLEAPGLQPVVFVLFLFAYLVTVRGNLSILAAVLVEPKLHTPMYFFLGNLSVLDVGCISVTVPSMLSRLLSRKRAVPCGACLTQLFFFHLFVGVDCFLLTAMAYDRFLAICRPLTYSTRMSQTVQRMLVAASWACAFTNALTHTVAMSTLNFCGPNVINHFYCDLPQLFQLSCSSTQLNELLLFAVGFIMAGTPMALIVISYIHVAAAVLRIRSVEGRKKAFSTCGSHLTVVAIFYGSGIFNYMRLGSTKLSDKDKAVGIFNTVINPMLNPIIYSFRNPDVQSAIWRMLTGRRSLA
Outline: as §1

OR3A2 (Homo sapiens) = molecular target: T9, OR3A2 (Homo sapiens) (UniProt P47893)
T9 sequence (whole entry): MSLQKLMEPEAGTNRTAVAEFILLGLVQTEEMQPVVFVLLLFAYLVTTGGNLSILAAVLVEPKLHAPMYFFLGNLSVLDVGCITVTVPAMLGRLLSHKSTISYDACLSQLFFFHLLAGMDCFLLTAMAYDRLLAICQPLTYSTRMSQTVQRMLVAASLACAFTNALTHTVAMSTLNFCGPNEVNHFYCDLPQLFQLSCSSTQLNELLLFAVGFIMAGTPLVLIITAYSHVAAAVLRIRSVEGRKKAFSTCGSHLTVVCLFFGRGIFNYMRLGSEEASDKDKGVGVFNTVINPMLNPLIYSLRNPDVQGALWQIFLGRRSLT
Outline: as §1
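Note: active if original authors judged signal statistically different from baseline.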

| Compound | odorant receptor agonist call (OR2W1 [1]) | odorant receptor agonist call (OR2W1 [2]) | odorant receptor agonist call (OR2W3 (Homo sapiens)) | odorant receptor agonist call (OR2W3) | odorant receptor agonist call (OR2W5P (Homo sapiens)) | odorant receptor agonist call (OR2Y1) | odorant receptor agonist call (OR2Z1 (Homo sapiens)) | odorant receptor agonist call (OR3A1 (Homo sapiens)) | odorant receptor agonist call (OR3A2 (Homo sapiens)) |
| --- | --- | --- | --- | --- | --- | --- | --- | --- | --- |
| C=CC(C)(O)CCC=C(C)C (stereo not given) | active | inactive | inactive | inactive | inactive | inactive | inactive | inactive | inactive |
| CC(=O)OC1CC2CCC1(C)C2(C)C (stereo not given) | inactive |  |  | inactive | inactive | inactive | inactive | inactive | inactive |
| CCCC(=O)O | inactive |  | inactive | inactive | inactive | inactive | inactive | inactive | inactive |
| C=C(C)C1CC=C(C)C(=O)C1 (stereo not given) | active | active | inactive |  |  |  |  |  |  |
| CC(=O)OCC=C(C)CCC=C(C)C | active |  |  | inactive | inactive | inactive | inactive | active | inactive |
| CCCCO | inactive |  | inactive | inactive | inactive | inactive | inactive | inactive | inactive |
| COc1cc(C=O)ccc1O | inactive |  | inactive | inactive | inactive | inactive | inactive | inactive | inactive |
| c1ccc(Oc2ccccc2)cc1 | inactive |  |  | inactive | inactive | inactive | inactive | inactive | inactive |
| CCCCCCCOC(C)=O | inactive |  |  | inactive | inactive | inactive | inactive | inactive | inactive |
| CCCCCCCCC=O | active | active | inactive |  |  |  |  |  |  |
| CC(=O)c1ccccc1 | active |  |  | inactive | inactive | inactive | active | active | active |
| O=C1CCCCCCCCCCCC(=O)OCCO1 | inactive |  |  | inactive | inactive | inactive | inactive | inactive | inactive |
| CCCCCCCC=O | active | active | inactive | inactive | inactive | inactive | inactive | inactive | inactive |

Given with tabs: 2 of the compounds above
Compound	odorant receptor agonist call (OR2W1 [1])	odorant receptor agonist call (OR2W1 [2])	odorant receptor agonist call (OR2W3 (Homo sapiens))	odorant receptor agonist call (OR2W3)	odorant receptor agonist call (OR2W5P (Homo sapiens))	odorant receptor agonist call (OR2Y1)	odorant receptor agonist call (OR2Z1 (Homo sapiens))	odorant receptor agonist call (OR3A1 (Homo sapiens))	odorant receptor agonist call (OR3A2 (Homo sapiens))
CCCC(=O)O	inactive		inactive	inactive	inactive	inactive	inactive	inactive	inactive
C=C(C)C1CC=C(C)C(=O)C1 (stereo not given)	active	active	inactive						
